In the assay the target is Myelin and lymphocyte protein 2 (MAL2) (human (endogenous in MDA-MB-231)) (UniProt Q969L2). The assay can be described thus: co-IP; endogenous proteins in MDA-MB-231 whole cell lysates; MAL2 antibody, β-catenin antibody or IgG on beads (DIA IP/CoIP Kit), incubated at 4 °C for more than 8 h, washed with PBST five times, western blot. In general terms: In western blotting, separated proteins are transferred to a membrane and probed.

Sequences of proteins named here, by UniProt entry; tags and fusion partners are left off.
UniProt Q969L2: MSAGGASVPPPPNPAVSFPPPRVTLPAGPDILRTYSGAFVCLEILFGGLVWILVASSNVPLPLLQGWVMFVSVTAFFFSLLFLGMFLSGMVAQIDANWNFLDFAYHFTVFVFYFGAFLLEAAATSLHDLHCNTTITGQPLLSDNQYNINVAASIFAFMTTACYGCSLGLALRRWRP
UniProt P35222: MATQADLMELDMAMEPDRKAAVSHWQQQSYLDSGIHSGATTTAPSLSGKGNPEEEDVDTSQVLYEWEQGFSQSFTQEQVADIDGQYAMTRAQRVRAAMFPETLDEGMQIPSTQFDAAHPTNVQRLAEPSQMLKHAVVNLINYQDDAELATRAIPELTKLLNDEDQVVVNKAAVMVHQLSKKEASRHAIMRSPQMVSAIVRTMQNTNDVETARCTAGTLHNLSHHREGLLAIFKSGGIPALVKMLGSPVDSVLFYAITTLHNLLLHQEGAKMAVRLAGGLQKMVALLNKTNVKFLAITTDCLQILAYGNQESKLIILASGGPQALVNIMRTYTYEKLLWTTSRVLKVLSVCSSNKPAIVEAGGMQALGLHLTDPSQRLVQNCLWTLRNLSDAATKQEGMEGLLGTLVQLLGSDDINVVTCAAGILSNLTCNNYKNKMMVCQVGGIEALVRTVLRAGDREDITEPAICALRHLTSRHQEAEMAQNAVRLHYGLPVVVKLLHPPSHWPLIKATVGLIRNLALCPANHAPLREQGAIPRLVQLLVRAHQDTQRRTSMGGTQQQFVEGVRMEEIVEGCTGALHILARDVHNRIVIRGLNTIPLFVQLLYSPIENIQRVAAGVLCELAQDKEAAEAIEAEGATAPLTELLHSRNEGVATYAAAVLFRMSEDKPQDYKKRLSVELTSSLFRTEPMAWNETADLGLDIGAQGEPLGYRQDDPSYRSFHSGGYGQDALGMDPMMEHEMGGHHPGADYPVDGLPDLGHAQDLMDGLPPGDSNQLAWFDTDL

No constants are given. Whether binding was seen depends on the method and setting. Binding seen in cells or lysates may run through a third protein. Some entries that bind do so weakly or less than the wild type.

Turning to β-catenin (from UniProt P35222 1-781), the binding entry is given as “binds”.

Values taken from paper PMC10362617.
